Data: publication PMC10071743
No constants are given. Whether binding was seen depends on the method and setting. Binding seen in cells or lysates may run through a third protein. Some binding calls cover weakened binding; strength is not graded here. Where a sequence is shown, tags or fusion partners need not be part of it.

Chains of the proteins cited; added tags and fusions are not shown.
UniProt P10275: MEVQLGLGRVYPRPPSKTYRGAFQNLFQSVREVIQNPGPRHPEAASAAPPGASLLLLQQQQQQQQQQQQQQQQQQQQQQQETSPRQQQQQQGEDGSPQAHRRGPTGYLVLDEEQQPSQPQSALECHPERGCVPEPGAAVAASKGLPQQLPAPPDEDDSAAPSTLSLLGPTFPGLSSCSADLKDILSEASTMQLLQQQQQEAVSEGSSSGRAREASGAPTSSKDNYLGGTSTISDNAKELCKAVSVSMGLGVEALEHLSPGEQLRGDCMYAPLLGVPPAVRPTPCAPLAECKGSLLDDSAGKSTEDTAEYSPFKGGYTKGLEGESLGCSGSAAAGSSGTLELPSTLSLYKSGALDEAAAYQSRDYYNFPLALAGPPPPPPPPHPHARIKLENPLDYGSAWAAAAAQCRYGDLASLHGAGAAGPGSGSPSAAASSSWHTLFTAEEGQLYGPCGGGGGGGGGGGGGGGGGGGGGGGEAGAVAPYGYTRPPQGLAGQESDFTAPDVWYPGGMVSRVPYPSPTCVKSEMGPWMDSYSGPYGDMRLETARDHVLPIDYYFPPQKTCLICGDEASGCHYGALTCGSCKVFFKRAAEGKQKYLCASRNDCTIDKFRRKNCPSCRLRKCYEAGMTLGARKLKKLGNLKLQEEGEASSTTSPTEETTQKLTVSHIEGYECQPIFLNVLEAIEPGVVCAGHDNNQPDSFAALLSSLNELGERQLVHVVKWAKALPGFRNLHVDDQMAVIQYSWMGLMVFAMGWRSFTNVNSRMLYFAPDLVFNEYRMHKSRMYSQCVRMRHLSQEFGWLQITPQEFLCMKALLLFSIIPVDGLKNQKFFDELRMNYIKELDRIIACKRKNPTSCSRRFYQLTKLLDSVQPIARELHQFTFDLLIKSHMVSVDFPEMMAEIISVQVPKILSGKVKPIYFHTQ

Target: T1, Flag-USP3 (UniProt Q9Y6I4)
T1 sequence: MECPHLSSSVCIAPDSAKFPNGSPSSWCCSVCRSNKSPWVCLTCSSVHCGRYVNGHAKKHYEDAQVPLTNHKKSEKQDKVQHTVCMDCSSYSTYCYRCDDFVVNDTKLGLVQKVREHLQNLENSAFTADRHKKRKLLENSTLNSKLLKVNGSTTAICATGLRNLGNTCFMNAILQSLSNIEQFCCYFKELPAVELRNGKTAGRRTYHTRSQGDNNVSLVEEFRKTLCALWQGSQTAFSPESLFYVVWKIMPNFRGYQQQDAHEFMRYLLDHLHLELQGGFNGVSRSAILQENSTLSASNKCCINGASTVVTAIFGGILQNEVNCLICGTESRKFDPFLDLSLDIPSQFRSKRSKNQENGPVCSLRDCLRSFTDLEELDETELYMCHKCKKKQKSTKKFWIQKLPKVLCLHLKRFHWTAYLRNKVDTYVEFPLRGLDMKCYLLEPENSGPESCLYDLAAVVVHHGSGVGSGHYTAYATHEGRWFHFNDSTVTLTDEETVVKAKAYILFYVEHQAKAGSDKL
Test: co-IP; Flag-USP3 transfected into LoVo-OxR cells overexpressing the lncRNA AC092894.1 and into control vector cells; precipitating antibody and buffer not stated

binding: binds
Substance: androgen receptor (from UniProt P10275 1-920)
